{"source": "patent US20220142957A1", "about": "“TERPENE BASED THERAPEUTIC DEEP EUTECTIC SYSTEM, METHOD OF OBTAINING AND USES THEREOF” (priority 2019, published 2022)", "origin": "cited, not measured here", "settings": "cited from earlier work"}
{"smiles": "CC(C)Cc1ccc(C(C)C(=O)O)cc1", "note": "(stereo not shown) [IBU, Ibuprofen]", "values": [{"measurement": "solubility in water", "result": "≈ 2 mg mL^−1"}]}
